Sequences of proteins named here, by UniProt entry; tags and fusion partners are left off.
UniProt Q5U431, whole entry T447P: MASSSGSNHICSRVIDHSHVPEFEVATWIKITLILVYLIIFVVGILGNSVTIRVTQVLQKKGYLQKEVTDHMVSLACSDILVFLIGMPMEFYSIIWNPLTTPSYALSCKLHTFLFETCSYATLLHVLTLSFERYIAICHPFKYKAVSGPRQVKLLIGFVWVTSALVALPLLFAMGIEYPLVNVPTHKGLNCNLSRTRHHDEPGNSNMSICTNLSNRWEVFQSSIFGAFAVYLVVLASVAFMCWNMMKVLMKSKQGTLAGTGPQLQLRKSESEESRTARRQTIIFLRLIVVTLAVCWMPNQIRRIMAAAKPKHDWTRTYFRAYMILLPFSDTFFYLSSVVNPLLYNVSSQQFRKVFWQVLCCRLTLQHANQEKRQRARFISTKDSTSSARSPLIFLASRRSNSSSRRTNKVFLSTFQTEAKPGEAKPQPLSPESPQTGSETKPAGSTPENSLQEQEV

In patent publication US12569502B2, “Use of bile acids and derivatives thereof in preparation of GPR39 agonist” (PEKING UNIVERSITY, priority 2019, dated 2026):

Molecular target: GPR39 receptors on m39-20 cell lines (Mus musculus, UniProt Q5U431, T447P)
Assay: FLIPR calcium imaging on m39-20 cell lines stably expressing murine-derived GPR39
Settings: read-out: Only bile acid EC50; m39-20 cells, no zinc ions

For `C[C@H](CCC(=O)NCCS(=O)(=O)O)[C@H]1CC[C@H]2[C@@H]3CC[C@@H]4C[C@H](OS(=O)(=O)O)CC[C@]4(C)[C@H]3CC[C@]12C` [TLCAS], the EC50 was 71.6 µM and > 200 µM.

The source holds more than one record for some entries. This is not the full list of results. The source may hold further records. The records of an entry differ, and nothing given here explains why; they may come from other doses, times, organisms or constructs than stated.
